Reference: PMC2065906
No constants are given. Whether binding was seen depends on the method and setting. Binding can be weak; no strength is given. Tags and fused reporters may be left off the sequences shown.

Target: T1, TRα1-GST fusion protein (thyroid hormone receptor α1 fused to GST) (UniProt P63059)
T1 sequence: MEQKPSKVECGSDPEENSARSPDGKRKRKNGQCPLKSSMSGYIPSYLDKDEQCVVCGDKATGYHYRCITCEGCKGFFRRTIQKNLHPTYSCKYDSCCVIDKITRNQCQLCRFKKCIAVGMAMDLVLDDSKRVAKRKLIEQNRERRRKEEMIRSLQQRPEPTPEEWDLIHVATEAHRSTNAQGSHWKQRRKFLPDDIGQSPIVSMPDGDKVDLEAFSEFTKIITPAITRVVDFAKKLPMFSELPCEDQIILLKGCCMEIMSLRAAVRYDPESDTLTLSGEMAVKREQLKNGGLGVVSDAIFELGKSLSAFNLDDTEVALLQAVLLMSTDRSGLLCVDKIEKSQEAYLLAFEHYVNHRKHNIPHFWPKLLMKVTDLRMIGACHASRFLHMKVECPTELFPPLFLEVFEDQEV
Assay: pull-down; GST or TRα1-GST (2 µg) immobilised on glutathione-Sepharose beads, incubated with 2 µg DOR-His, with or without 1 µM T3; 10 mM Tris/HCl, 200 mM NaCl, EDTA 0.2%, pH 7.5, 1 h at 4°C; Western blot with anti-His and anti-GST; both purified

## Full-length DOR with a histidine-tagged N-terminus (DOR-His), purified from E. coli
  binding: binds
